Laboratory results: paper PMC5615036, “Crystal structure of an ASCH protein from Zymomonas mobilis and its ribonuclease activity specific for single-stranded RNA”
Where a chain is given by its changes, count along the chain named. For some of these results: A weaker result is weaker than the reference pair of the same experiment. Where a protein sequence is shown, tags need not be part of it. For some of these results: Construct, isoform or probe ends are uncertain for at least one entry. For some of these results: At least one verdict rests on a figure or table, not on a statement of the authors.

Columns and labels:
Assay in all cases: EMSA
[1] = target: T1, ZmASCH S128A (Zymomonas mobilis ZM4) (UniProt Q5NP14); details: 10 mM Mg2+, lesser decrease than K53E, EMSA: 20 mM Tris-HCl pH 7.5, 10 mM Mg acetate, 300 mM KCl, 100 ng/uL BSA, 100 ng/uL heparin, 30 min at 310 K, recombinant protein, residues 1-148, protein details: N-terminal His6, label: 5'-32P
T1 sequence (looked up): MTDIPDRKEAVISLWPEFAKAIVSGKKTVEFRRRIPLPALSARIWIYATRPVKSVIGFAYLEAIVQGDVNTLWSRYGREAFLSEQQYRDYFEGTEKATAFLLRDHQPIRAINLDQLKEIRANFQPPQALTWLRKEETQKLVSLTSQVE

[2] = target: T2, ZmASCH Y47F (Zymomonas mobilis ZM4) (UniProt Q5NP14); details: 10 mM Mg2+, substantially decreased, EMSA: 20 mM Tris-HCl pH 7.5, 10 mM Mg acetate, 300 mM KCl, 100 ng/uL BSA, 100 ng/uL heparin, 30 min at 310 K, recombinant protein, residues 1-148, protein details: N-terminal His6, label: 5'-32P
T2 sequence (looked up): T1 sequence (looked up) with Y47F, A128S

[3] = target: T3, ZmASCH K53E (Zymomonas mobilis ZM4) (UniProt Q5NP14); details: 10 mM Mg2+, EMSA: 20 mM Tris-HCl pH 7.5, 10 mM Mg acetate, 300 mM KCl, 100 ng/uL BSA, 100 ng/uL heparin, 30 min at 310 K, recombinant protein, residues 1-148, protein details: N-terminal His6, label: 5'-32P
T3 sequence (looked up): T1 sequence (looked up) with K53E, A128S

[4] = target: T4, ZmASCH wild-type (Zymomonas mobilis ZM4) (UniProt Q5NP14); details: 10 mM Mg2+, RNA is degraded; EMSA: 20 mM Tris-HCl pH 7.5, 10 mM Mg acetate, 300 mM KCl, 100 ng/uL BSA, 100 ng/uL heparin, 30 min at 310 K; recombinant protein; residues 1-148; protein details: N-terminal His6; label: 5'-32P
T4 sequence (looked up): T1 sequence (looked up) with A128S

Sequence | binding result ([1]; single-stranded DNA) | binding result ([2]; single-stranded DNA) | binding result ([3]; single-stranded DNA) | binding result [4] | binding result [1] | binding result [2] | binding result [3]
ATCAGCTCGTCACAACATTACTTCATCAAC [ssDNA(30mer)] | binds more weakly | binds more weakly | binds more weakly |  |  |  | 
AUCAGCUCGUCACAACAUUACUUCAUCAAC [ssRNA(30mer) (= probe 8)] |  |  |  | binds | binds more weakly | binds more weakly | binds more weakly
